# Data as given in PubChem BioAssay AID1487 (National Center for Advancing Translational Sciences (NCATS), 2009).
# Some of the results follow. These are further read-outs of the screen, such as a control signal, another cell line or another target. No call is given for them. Compounds called inactive in the main read-out are mostly missing here. Words in brackets tell the shape of the fitted curve; partial curves, single points and poor fits give uncertain potencies.
# Assay: qHTS Assay for Modulators of Lamin A Splicing
# Conditions: HeLa LMNA splicing GFP/RFP minigene ratio, 48 h
# Procedure, shortened: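 S3 HeLa cells stably expressing lamin A-EGFP splicing minigene plus DsRed2, 600 cells/well, 48 h compound exposure at 37C. Laser-scanning cytometry; analysed as GFP (500-530 nm)/RFP (575-640 nm) total intensity ratio; 0.5% DMSO vehicle.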
# [1] = measured here: GFP splicing reporter channel
# [2] = measured here: RFP viability control channel
SMILES,AC50 [1],AC50 [2]
CC1=C(C(=O)N2CCOCC2)C(c2ccc(Cl)cc2)NC(=S)N1 (centres undefined),"1.26 µM [rising, full curve, poor fit]",–
C=CCN(CC=C)S(=O)(=O)c1ccc(NC(=S)NC(=O)c2ccco2)cc1,–,"22.4 µM [rising, single point]"
COc1ccc(-c2ccnc3nc(-n4cccc4)nn23)cc1,–,"0.447 µM [rising, single point]"
Cc1cc(C)n(C(=O)c2ccc(NC(=O)C3COc4ccccc4O3)cc2)n1 (centres undefined),"3.16 µM [rising, partial curve, poor fit]",–
Cc1cc(S(=O)(=O)N(Cc2ccc(C(C)(C)C)cc2)Cc2cccs2)ccc1-n1cnnn1,"25.1 µM [rising, single point]","31.6 µM [rising, single point]"
Cc1ccc(-n2ncc3c(N(C)Cc4ccccc4)ncnc32)cc1,–,"0.00447 µM [rising, full curve, poor fit]"
Cc1cc(Cl)ccc1Oc1ncc(CN2CCN(c3ccccc3)CC2)s1,–,"15.8 µM [rising, single point]"
Cc1ccc(-c2cc(C(=O)N/N=C/C=C/c3ccccc3)n[nH]2)s1,"15.8 µM [rising, single point]","35.5 µM [rising, single point]"
S=C(NCc1ccc2[nH]c3c(c2c1)CCCC3)Nc1ccccc1Cl,–,"35.5 µM [rising, single point]"
Cc1ccc(S(=O)(=O)N2CCCOC2CNC(=O)C(=O)NCCC2=CCCCC2)cc1 (centres undefined),"12.6 µM [rising, single point]","20 µM [rising, single point]"
COc1ccc(Oc2ncc3nc(-c4ccc(Cl)cc4)c(=O)n(C4CC4)c3n2)cc1,"14.1 µM [falling, partial curve, poor fit]",–
CC(C)C(=O)Nc1c2c(nc3ccccc13)N(C)CC2,–,"0.0794 µM [falling, full curve, poor fit]"
O=C(/C=C/c1ccccc1Cl)NCCc1ccccc1,"2.82 µM [rising, full curve]","15.8 µM [rising, partial curve]"
Cc1ccc(C)c(N2CCN(C(=O)Cc3ccc(-n4c(=O)[nH]c5ccsc5c4=O)cc3)CC2)c1,–,"35.5 µM [rising, partial curve, poor fit]"
O=C(NC1CCc2ccccc21)c1cc(COc2ccc(F)cc2F)on1 (centres undefined),–,"12.6 µM [falling, partial curve]"
COCCSc1nnc(NC(=O)c2ccc(NC(=O)C(C)C)cc2)s1,"35.5 µM [falling, partial curve]","35.5 µM [falling, partial curve, poor fit]"
COc1cc(NC(=O)Cn2ccn(Cc3ccccc3OC)c(=O)c2=O)cc(OC)c1,"35.5 µM [falling, single point]","6.31 µM [falling, partial curve]"
N#Cc1nc(COc2ccc(Cl)cc2)oc1N1CCN(Cc2ccccc2)CC1,–,"14.1 µM [rising, single point]"

# Fetched one by one from the list above, two records:
SMILES,AC50 [1],AC50 [2]
Cc1ccc(-c2cc(C(=O)N/N=C/C=C/c3ccccc3)n[nH]2)s1,"15.8 µM [rising, single point]","35.5 µM [rising, single point]"
COc1ccc(-c2ccnc3nc(-n4cccc4)nn23)cc1,–,"0.447 µM [rising, single point]"

# Following part.

SMILES,AC50 [1],AC50 [2]
COc1cc2c(C#N)c(N3CCN(c4ccccc4OC)CC3)nc(N)c2c(N)n1,"35.5 µM [falling, single point]","35.5 µM [falling, single point]"
Cc1noc(C)c1-c1ccc2ncnc(NC3CC3)c2c1,"7.94 µM [falling, partial curve]","6.31 µM [rising, single point]"
COc1ccc(OC)c(Nc2ncnc3c2cnn3-c2cccc(Cl)c2)c1,–,"5.01 µM [rising, partial curve]"
Cc1ccc(C(C)NC(=O)/C(C#N)=C\c2c(C)[nH]c3ccccc23)cc1 (centres undefined),"20 µM [rising, single point]","15.8 µM [rising, single point]"
Cc1ccc(C)c(SCC(=O)NC(=O)NCc2ccccc2)c1,"31.6 µM [rising, single point]","35.5 µM [rising, single point]"
O=C(N/N=C1/CC2C=CCC12)c1ccco1 (centres undefined),–,"2.82 µM [rising, single point]"
COc1cccc(N2CCN(C(=O)c3nc4nc(C)cc(C)n4n3)CC2)c1,"3.16 µM [falling, partial curve, poor fit]","11.2 µM [falling, partial curve, poor fit]"
C[C@@H]1C=C[C@](Cc2ccccc2)(C(=O)NCC2CC2)N1C(=O)c1ccccc1,–,"31.6 µM [rising, single point]"
Cc1cc(/C=C(/C#N)c2cccc(F)c2)c(C)n1-c1cccnc1,"25.1 µM [rising, single point]","35.5 µM [rising, single point]"
O=C1CC(c2ccccc2F)c2cc3c(cc2N1)CCC3 (centres undefined),"5.62 µM [falling, full curve]","7.08 µM [falling, full curve]"
O=C(c1nc2ccc(Cl)cn2c1CNCCn1ccnc1)N1CCCCCCC1,–,"0.141 µM [falling, full curve, poor fit]"
COc1ccc(NC(=O)c2cc(S(=O)(=O)NCC3COc4ccccc4O3)ccc2F)cc1 (centres undefined),–,"31.6 µM [rising, single point]"
COc1ccc(S(=O)(=O)NCC(c2ccc(N(C)C)cc2)N2CCc3ccccc32)cc1 (centres undefined),"10 µM [falling, partial curve, poor fit]",–
O=C1CC(c2ccc(F)cc2)C2=C(CCCC2=O)N1 (centres undefined),"1.12 µM [falling, full curve, poor fit]","0.891 µM [falling, full curve, poor fit]"
O=C(OC(c1ccccc1)c1nccc2ccccc12)c1cccc([N+](=O)[O-])c1 (centres undefined),–,"35.5 µM [rising, single point]"
Cc1nnc(NC(=O)c2ccc3ccccc3c2)o1,–,"12.6 µM [rising, partial curve, poor fit]"
CN(C)c1ccc(-c2nn3c(-c4ccc(Cl)cc4Cl)nnc3s2)cc1,–,"5.62 µM [rising, partial curve]"
